From the supplement of paper PMC12595434, “Development of retinoid nuclear receptor pathway antagonists through targeting aldehyde dehydrogenase 1A3” (iScience, 2025) come the findings set out here.

Chains of the proteins cited; added tags and fusions are not shown. Lines headed by an entry give the natural chain unless they say otherwise; changes in a name come on top.
UniProt Q9Y4P3: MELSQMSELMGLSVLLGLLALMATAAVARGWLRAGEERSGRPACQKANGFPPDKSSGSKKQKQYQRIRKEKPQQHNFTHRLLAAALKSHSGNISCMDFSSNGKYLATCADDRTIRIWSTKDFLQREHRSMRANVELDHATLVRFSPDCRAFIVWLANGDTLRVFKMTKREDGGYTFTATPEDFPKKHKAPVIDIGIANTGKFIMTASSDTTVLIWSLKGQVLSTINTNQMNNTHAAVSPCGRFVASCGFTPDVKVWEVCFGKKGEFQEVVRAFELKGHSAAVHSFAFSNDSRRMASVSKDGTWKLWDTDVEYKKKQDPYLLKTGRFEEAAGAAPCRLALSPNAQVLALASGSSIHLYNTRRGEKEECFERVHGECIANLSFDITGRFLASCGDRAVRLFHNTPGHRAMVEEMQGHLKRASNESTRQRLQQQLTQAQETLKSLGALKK
UniProt Q9Y680: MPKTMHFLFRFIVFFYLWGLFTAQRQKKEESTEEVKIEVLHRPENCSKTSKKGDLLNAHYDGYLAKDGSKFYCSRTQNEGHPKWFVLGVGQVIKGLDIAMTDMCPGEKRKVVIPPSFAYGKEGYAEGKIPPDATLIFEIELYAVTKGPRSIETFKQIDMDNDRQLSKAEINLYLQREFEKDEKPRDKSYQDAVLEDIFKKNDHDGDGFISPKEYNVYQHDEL
UniProt Q9Y3L5: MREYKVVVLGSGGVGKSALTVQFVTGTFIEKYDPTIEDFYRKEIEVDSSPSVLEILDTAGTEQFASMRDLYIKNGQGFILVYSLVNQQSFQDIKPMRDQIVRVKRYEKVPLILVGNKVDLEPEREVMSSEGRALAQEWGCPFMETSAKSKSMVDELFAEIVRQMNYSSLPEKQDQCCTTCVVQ
UniProt Q9Y3Q3: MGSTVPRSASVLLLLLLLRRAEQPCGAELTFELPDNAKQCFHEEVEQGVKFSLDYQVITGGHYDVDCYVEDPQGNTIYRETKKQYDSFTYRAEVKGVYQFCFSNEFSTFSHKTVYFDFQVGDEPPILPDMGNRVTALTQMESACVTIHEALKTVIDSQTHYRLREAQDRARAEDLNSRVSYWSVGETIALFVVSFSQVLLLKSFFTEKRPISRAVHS
UniProt Q9Y5K8, whole entry: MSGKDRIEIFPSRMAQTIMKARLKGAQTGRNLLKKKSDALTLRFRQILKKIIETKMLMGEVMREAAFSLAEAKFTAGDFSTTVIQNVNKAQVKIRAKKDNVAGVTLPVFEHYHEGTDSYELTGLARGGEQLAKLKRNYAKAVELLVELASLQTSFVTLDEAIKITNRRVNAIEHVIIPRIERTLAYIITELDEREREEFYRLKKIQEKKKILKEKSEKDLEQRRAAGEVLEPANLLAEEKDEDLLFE
UniProt Q9Y6Q9, whole entry, looked up: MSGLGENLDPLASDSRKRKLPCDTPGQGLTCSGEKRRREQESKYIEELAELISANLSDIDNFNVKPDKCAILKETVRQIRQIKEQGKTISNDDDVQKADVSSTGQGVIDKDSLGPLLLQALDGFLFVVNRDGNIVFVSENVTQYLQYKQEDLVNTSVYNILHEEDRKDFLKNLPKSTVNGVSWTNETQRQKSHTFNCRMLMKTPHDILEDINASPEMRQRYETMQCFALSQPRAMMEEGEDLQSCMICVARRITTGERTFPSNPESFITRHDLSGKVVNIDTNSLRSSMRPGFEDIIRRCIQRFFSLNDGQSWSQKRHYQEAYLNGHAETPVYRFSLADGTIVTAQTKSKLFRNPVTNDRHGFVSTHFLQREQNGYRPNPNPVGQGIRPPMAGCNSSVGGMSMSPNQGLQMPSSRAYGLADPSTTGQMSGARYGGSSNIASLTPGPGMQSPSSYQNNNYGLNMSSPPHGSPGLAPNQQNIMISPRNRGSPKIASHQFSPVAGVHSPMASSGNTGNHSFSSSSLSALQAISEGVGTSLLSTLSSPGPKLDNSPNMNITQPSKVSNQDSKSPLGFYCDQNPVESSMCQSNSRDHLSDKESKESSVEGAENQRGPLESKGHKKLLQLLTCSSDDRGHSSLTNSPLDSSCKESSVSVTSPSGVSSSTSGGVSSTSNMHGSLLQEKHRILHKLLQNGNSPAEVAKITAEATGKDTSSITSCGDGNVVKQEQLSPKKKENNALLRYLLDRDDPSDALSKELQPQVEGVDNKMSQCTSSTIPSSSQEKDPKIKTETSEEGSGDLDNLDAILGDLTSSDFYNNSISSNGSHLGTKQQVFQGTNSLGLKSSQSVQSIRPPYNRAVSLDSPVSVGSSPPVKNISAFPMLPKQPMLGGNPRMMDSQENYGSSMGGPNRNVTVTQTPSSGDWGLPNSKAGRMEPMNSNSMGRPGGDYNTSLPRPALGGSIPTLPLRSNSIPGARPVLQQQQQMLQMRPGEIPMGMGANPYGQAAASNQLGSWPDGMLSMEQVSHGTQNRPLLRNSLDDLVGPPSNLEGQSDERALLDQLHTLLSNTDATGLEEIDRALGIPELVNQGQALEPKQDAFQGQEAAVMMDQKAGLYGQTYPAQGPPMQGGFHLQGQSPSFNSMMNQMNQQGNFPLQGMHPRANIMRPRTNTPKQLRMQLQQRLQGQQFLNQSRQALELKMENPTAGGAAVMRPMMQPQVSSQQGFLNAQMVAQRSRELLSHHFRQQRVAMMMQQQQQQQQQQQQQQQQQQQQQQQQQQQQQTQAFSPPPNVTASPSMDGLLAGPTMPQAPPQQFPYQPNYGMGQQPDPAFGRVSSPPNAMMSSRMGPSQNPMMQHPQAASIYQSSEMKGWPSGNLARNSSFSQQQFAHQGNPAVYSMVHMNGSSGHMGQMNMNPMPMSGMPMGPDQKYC
UniProt Q9Y6X4: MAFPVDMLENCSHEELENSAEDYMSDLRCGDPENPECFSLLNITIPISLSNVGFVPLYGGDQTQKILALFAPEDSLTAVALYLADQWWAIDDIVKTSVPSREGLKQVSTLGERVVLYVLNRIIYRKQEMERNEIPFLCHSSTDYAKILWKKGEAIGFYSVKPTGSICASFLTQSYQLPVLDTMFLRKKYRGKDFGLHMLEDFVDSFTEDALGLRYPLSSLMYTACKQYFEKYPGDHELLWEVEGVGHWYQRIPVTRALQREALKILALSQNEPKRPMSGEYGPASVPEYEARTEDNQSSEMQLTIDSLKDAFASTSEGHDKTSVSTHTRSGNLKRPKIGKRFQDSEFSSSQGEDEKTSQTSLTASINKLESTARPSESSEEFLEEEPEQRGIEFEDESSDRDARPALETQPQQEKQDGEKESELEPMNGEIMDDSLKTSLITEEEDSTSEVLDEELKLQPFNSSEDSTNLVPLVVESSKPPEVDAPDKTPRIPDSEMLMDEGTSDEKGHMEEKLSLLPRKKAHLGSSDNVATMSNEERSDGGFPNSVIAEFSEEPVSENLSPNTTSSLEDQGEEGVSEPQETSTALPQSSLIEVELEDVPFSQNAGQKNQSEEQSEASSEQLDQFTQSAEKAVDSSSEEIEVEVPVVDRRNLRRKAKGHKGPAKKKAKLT
UniProt Q9Y5A7: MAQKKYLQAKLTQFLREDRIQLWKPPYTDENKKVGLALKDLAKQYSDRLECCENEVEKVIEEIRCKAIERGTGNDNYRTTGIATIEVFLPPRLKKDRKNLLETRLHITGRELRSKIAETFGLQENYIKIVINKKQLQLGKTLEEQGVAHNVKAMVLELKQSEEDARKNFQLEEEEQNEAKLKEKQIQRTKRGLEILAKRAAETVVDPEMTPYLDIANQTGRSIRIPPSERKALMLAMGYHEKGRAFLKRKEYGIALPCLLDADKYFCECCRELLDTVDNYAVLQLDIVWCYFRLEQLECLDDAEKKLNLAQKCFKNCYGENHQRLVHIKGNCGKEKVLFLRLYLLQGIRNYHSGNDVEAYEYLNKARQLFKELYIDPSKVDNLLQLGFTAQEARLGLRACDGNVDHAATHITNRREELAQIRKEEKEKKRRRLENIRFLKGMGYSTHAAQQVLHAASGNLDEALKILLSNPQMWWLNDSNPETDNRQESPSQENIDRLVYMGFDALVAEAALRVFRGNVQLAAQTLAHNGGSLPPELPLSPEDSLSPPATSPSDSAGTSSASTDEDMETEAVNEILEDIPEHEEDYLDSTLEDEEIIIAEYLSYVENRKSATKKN
UniProt Q9Y5V3: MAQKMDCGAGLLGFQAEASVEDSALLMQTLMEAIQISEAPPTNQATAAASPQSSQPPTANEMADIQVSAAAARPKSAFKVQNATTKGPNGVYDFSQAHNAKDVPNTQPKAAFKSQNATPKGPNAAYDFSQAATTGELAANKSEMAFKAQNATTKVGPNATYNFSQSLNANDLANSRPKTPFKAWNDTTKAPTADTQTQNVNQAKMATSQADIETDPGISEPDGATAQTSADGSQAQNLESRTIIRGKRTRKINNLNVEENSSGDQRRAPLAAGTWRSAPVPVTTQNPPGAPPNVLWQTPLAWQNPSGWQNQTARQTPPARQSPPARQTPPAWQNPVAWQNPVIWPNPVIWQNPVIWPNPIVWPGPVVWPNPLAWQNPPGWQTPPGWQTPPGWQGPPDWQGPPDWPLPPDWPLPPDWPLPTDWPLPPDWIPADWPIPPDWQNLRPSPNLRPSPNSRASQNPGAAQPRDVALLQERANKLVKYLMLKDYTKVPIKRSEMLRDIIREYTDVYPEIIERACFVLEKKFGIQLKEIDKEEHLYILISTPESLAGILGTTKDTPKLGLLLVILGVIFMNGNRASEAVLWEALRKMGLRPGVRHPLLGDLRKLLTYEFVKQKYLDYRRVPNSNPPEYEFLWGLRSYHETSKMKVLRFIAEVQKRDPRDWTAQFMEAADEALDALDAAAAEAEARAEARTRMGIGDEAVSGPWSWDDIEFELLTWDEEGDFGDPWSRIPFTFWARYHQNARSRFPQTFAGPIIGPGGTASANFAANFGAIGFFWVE
UniProt Q9Y320, whole entry: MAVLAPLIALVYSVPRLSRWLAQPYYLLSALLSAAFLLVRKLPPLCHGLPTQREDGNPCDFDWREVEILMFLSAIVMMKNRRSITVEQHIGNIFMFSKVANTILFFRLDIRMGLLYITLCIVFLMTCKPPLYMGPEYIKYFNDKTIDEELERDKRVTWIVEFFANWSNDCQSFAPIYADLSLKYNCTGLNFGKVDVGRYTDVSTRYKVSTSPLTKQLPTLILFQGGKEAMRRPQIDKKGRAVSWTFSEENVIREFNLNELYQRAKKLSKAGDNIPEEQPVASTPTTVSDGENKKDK
UniProt Q9Y2L5: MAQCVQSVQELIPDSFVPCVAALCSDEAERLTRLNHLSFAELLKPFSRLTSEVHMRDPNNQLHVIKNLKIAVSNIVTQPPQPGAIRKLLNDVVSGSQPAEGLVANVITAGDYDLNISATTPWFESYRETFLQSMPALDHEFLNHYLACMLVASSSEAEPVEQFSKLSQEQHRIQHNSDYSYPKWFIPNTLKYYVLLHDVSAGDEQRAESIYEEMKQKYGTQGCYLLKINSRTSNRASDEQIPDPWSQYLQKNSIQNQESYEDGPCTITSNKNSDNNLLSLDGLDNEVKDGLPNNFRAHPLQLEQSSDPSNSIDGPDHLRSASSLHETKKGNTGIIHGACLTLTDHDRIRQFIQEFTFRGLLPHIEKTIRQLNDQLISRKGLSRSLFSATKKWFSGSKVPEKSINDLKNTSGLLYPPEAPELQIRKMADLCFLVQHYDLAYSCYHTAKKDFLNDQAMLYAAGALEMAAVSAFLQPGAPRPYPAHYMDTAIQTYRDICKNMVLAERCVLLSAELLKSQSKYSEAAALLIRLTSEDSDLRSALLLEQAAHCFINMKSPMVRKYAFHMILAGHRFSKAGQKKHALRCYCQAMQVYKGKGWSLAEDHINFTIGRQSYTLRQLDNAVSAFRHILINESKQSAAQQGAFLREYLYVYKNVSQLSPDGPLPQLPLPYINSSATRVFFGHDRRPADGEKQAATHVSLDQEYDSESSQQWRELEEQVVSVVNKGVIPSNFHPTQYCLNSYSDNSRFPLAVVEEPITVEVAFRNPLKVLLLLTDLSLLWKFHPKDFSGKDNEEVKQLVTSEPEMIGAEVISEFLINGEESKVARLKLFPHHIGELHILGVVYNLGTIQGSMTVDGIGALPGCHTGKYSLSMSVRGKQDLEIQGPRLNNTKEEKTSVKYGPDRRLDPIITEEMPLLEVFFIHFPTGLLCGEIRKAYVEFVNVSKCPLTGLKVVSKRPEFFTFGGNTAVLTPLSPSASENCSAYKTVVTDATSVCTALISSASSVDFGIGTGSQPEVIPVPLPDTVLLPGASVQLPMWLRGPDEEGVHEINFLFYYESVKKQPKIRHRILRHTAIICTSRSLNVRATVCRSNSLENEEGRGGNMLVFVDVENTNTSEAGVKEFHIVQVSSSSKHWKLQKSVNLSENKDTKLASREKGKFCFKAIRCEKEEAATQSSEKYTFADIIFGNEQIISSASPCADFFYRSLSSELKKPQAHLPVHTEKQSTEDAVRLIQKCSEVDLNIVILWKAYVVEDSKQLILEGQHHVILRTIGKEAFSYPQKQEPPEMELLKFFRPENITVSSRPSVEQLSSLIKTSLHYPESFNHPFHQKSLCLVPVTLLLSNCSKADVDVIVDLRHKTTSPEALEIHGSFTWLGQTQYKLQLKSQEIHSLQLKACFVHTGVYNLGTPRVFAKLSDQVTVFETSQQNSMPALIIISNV

Some of the results follow. The data scatter; read single values as rough.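 Many melting curves are irregular; where none melted, Tm was taken as 64 °C.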

Compound in the assay: CCc1cnccc1C(=O)Nc1cc2c(cc1F)NC(=O)CC2
Kind of assay: melting temperature shift (DMSO Tm minus MBE1-treated Tm) in cellular thermal proteome profiling; higher = less thermal stabilization by MBE1 (negative = stabilized by MBE1). Conditions: A375.

SH3GLB1 (UniProt Q9Y371): the melting temperature shift runs as follows: (MBE1 concentration: 100 nM) -0.221 °C; (MBE1 concentration: 1 uM) -0.141 °C.
On to LRRFIP2 (UniProt Q9Y608), for which the melting temperature shift reads like this: (MBE1 concentration: 100 nM) -4.13 °C; (MBE1 concentration: 1 uM) -3.44 °C.
For TBL2 (UniProt Q9Y4P3), in that order: -0.482 °C and -0.464 °C.
For USP3 (UniProt Q9Y6I4), in that order: -0.226 °C and -0.0188 °C.
For HSPB11 (UniProt Q9Y547), in that order: -0.168 °C and 0.00671 °C.
As to SNX9 (UniProt Q9Y5X1), the melting temperature shift (MBE1 concentration: 100 nM) was determined as 0.586 °C and the melting temperature shift (MBE1 concentration: 1 uM) is -0.177 °C.
The like results for BZW2 (UniProt Q9Y6E2) were, in that order, 0.281 °C and 0.244 °C.
For NME7 (UniProt Q9Y5B8), in that order: -1.28 °C and 0 °C.
For the target HEBP2 (UniProt Q9Y5Z4), the melting temperature shift (MBE1 concentration: 100 nM) was -0.101 °C and the melting temperature shift (MBE1 concentration: 1 uM) came to 0.00611 °C.
The like results for FKBP7 (UniProt Q9Y680) were, in that order, 0.803 °C and -2.38 °C.
The like results for ALG6 (UniProt Q9Y672) were, in that order, 0.704 °C and 0.891 °C.
For RAPGEF2 (UniProt Q9Y4G8), in that order: 4.67 °C and 4.07 °C.
On to SEC23IP (UniProt Q9Y6Y8), for which the melting temperature shift reads like this: (MBE1 concentration: 100 nM) 0.276 °C; (MBE1 concentration: 1 uM) 0.0244 °C.
Turning to MRPS28 (UniProt Q9Y2Q9), the melting temperature shift (MBE1 concentration: 100 nM) came out at 1.26 °C and the melting temperature shift (MBE1 concentration: 1 uM) was -0.885 °C.
The like results for SBDS (UniProt Q9Y3A5) were, in that order, 0.708 °C and 0.421 °C.
Take CFAP20 (UniProt Q9Y6A4): the melting temperature shift by setting is: (MBE1 concentration: 100 nM) -1.17 °C; (MBE1 concentration: 1 uM) 0.0855 °C.
For WBP11 (UniProt Q9Y2W2), in that order: -1.83 °C and -2.35 °C.
Take UniProt Q9Y6Q3: the melting temperature shift was determined as 0.531 °C (MBE1 concentration: 100 nM) and 0 °C (MBE1 concentration: 1 uM).
On to RAP2C (UniProt Q9Y3L5), for which the melting temperature shift (MBE1 concentration: 100 nM) was -4 °C and the melting temperature shift (MBE1 concentration: 1 uM) was -5.42 °C.
Regarding TMED3 (UniProt Q9Y3Q3), the melting temperature shift reads like this: (MBE1 concentration: 100 nM) 0.778 °C; (MBE1 concentration: 1 uM) 2.01 °C.
Consider TRAPPC1 (UniProt Q9Y5R8), for which the melting temperature shift is -0.812 °C (MBE1 concentration: 100 nM) and -0.391 °C (MBE1 concentration: 1 uM).
The like results for TEX264 (UniProt Q9Y6I9) were, in that order, 1.24 °C and 0.495 °C.
Regarding ATP6V1D (UniProt Q9Y5K8), the melting temperature shift by setting is: (MBE1 concentration: 100 nM) 0.136 °C; (MBE1 concentration: 1 uM) 0.656 °C.
The like results for ATP6V0A2 (UniProt Q9Y487) were, in that order, -1.33 °C and -0.752 °C.
With UniProt Q9Y5N5, the melting temperature shift (MBE1 concentration: 100 nM) is -0.288 °C and the melting temperature shift (MBE1 concentration: 1 uM) turned out to be 0.834 °C.
Consider CAB39 (UniProt Q9Y376), for which the melting temperature shift was -0.922 °C (MBE1 concentration: 100 nM) and -0.0427 °C (MBE1 concentration: 1 uM).
The like results for TACC3 (UniProt Q9Y6A5) were, in that order, -2.41 °C and 0.181 °C.
With ARIH1 (UniProt Q9Y4X5), the melting temperature shift runs as follows: (MBE1 concentration: 100 nM) -1.36 °C; (MBE1 concentration: 1 uM) -0.208 °C.
The like results for ARFGEF1 (UniProt Q9Y6D6) were, in that order, 0.727 °C and -0.189 °C.
For NCOA3 (UniProt Q9Y6Q9), in that order: -0.423 °C and -1.07 °C.
For UniProt Q9Y2U5, in that order: -0.256 °C and -0.29 °C.
With NOSIP (UniProt Q9Y314), the melting temperature shift is, setting by setting: (MBE1 concentration: 100 nM) -0.448 °C; (MBE1 concentration: 1 uM) -0.359 °C.
The like results for AK6 (UniProt Q9Y3D8) were, in that order, -0.594 °C and 0.122 °C.
On to UniProt Q9Y5Z7, for which the melting temperature shift (MBE1 concentration: 100 nM) stood at 1.47 °C and the melting temperature shift (MBE1 concentration: 1 uM) was 2.01 °C.
As for UniProt Q9Y6X4, the melting temperature shift is, setting by setting: (MBE1 concentration: 100 nM) 0.0201 °C; (MBE1 concentration: 1 uM) 1.43 °C.
For NUB1 (UniProt Q9Y5A7), in that order: -0.801 °C and 0.173 °C.
The like results for RBM8A (UniProt Q9Y5S9) were, in that order, -0.495 °C and -0.537 °C.
Take CAPN7 (UniProt Q9Y6W3): the melting temperature shift runs as follows: (MBE1 concentration: 100 nM) 0.171 °C; (MBE1 concentration: 1 uM) 0.0794 °C.
For ARFGEF2 (UniProt Q9Y6D5), in that order: 0.495 °C and -0.672 °C.
For NDUFAF1 (UniProt Q9Y375), in that order: -1.39 °C and 0.577 °C.
The like results for COPG1 (UniProt Q9Y678) were, in that order, -0.658 °C and 0.0672 °C.
Regarding NOC2L (UniProt Q9Y3T9), the melting temperature shift (MBE1 concentration: 100 nM) was -0.532 °C and the melting temperature shift (MBE1 concentration: 1 uM) was -0.833 °C.
For UniProt Q9Y5V3, in that order: -2.12 °C and -0.237 °C.
The like results for NFS1 (UniProt Q9Y697) were, in that order, -0.577 °C and 0.0201 °C.
For TMX2 (UniProt Q9Y320), in that order: -0.49 °C and -0.577 °C.
For the target SAMM50 (UniProt Q9Y512), the melting temperature shift by setting is: (MBE1 concentration: 100 nM) -3.62 °C; (MBE1 concentration: 1 uM) -2.83 °C.
The like results for UniProt Q9Y5W7 were, in that order, 0.128 °C and -0.415 °C.
The like results for TRAPPC8 (UniProt Q9Y2L5) were, in that order, 0.837 °C and 0.592 °C.
The like results for GTF3C3 (UniProt Q9Y5Q9) were, in that order, 0.122 °C and -0.295 °C.
On to UniProt Q9Y2K7, for which the melting temperature shift is, setting by setting: (MBE1 concentration: 100 nM) -0.141 °C; (MBE1 concentration: 1 uM) -0.0047 °C.
With DERA (UniProt Q9Y315), the melting temperature shift by setting is: (MBE1 concentration: 100 nM) -1.28 °C; (MBE1 concentration: 1 uM) -0.614 °C.
For PAXBP1 (UniProt Q9Y5B6), in that order: -1.06 °C and -0.34 °C.
For PKP3 (UniProt Q9Y446), in that order: -0.628 °C and -0.899 °C.
The like results for LAS1L (UniProt Q9Y4W2) were, in that order, -0.0256 °C and -0.109 °C.
Take DYNC1LI1 (UniProt Q9Y6G9): the melting temperature shift reads like this: (MBE1 concentration: 100 nM) -0.116 °C; (MBE1 concentration: 1 uM) 0.843 °C.
The like results for CARHSP1 (UniProt Q9Y2V2) were, in that order, -1.96 °C and 1.92 °C.
For MYO5A (UniProt Q9Y4I1), in that order: -0.607 °C and -0.692 °C.
For SNX8 (UniProt Q9Y5X2), in that order: -0.812 °C and 0.11 °C.
Consider TIMM13 (UniProt Q9Y5L4), for which the melting temperature shift was -4 °C (MBE1 concentration: 100 nM) and -0.272 °C (MBE1 concentration: 1 uM).
The like results for DMXL1 (UniProt Q9Y485) were, in that order, 0.208 °C and 0.177 °C.
For MRPS23 (UniProt Q9Y3D9), in that order: -0.607 °C and -0.302 °C.
The like results for HECTD4 (UniProt Q9Y4D8) were, in that order, 2.94 °C and 2.68 °C.
In the case of UniProt Q9Y6J9, the melting temperature shift was -0.615 °C (MBE1 concentration: 100 nM) and -0.884 °C (MBE1 concentration: 1 uM).
The like results for PRELID3B (UniProt Q9Y3B1) were, in that order, 1.26 °C and 0.305 °C.
Turning to MRPS18B (UniProt Q9Y676), the melting temperature shift runs as follows: (MBE1 concentration: 100 nM) -0.673 °C; (MBE1 concentration: 1 uM) 0.348 °C.
For SRPRB (UniProt Q9Y5M8), in that order: 0.501 °C and 0.372 °C.
For CHTOP (UniProt Q9Y3Y2), in that order: 0.916 °C and -2.75 °C.
